Consider 31 compounds from the supplement of paper PMC3047530.

This is one part of the list. Repeats are few or missing, and single values can be far off.

This assay has as its system Geomyces destructans. The assay can be described thus: growth inhibition relative to DMSO control; higher = stronger growth inhibition. The settings on record: 10 µM; 15 °C; incubation time 10 days.
With `COC(C)(C)CCC[C@H](C)C/C=C/C(C)=C/C(=O)OC(C)C`, the growth inhibition was 0.486%.

Turning to `C[C@@]12C(=O)OC(=O)[C@]1(C)[C@H]1CC[C@@H]2O1`, the growth inhibition was determined as 77.6%.

As for `CCCC(C)(COC(N)=O)COC(=O)NC(C)C` (stereo unspecified), the growth inhibition came out at 4.61%.

Regarding `COc1cc(OC)c(OC)cc1C=O`, the growth inhibition was found to be 9.54%.

For `C[N+]1(C)CCCC(OC(=O)C(O)(c2ccccc2)c2ccccc2)C1` (stereo unspecified), the growth inhibition is 7.57%.

`CC(=O)O[C@@H]1C[C@H]2C(C)(C)C(=O)C=C[C@]2(C)[C@H]2CC[C@]3(C)C(=CC(=O)O[C@H]3c3ccoc3)[C@@]21C`: the growth inhibition is -8.7%.

On to `N[C@@H]1C[C@H]1c1ccccc1.N[C@H]1C[C@@H]1c1ccccc1`, for which the growth inhibition was -10.2%.

As to `COc1ccc(C(c2ccc(OC)cc2)C(Cl)(Cl)Cl)cc1`, the growth inhibition was -10.3%.

As to `COC(=O)NC(=S)Nc1ccccc1NC(=S)NC(=O)OC`, the growth inhibition is -19%.

As for `CCOP(=S)(OCC)Oc1ccc2c(C)c(Cl)c(=O)oc2c1`, the growth inhibition was -17%.

For the compound `CC(C)=CCC[C@]1(C)C=Cc2c(O)c3c(c(CC=C(C)C)c2O1)O[C@]12C(=C[C@@H]4C[C@H]1C(C)(C)O[C@@]2(C/C=C(/C)C(N)=O)C4=O)C3=O`, the growth inhibition was 0.416%.

Turning to `FC(F)(F)c1cccc(N2CCNCC2)c1`, the growth inhibition was -10.1%.

On to `CC1CC(Cl)CCC1C(=O)OC(C)(C)C` (stereo unspecified), for which the growth inhibition is -8.7%.

`COc1ccccc1N1CCNCC1`: the growth inhibition was -33.5%.

Consider `CCCCCCCCCCCCCCCC[n+]1ccccc1`, for which the growth inhibition came to 90.7%.

On to `C=CCC1(C(C)CCC)C(=O)NC(=S)NC1=O` (stereo unspecified), for which the growth inhibition was 8.31%.

With `c1ccc2c3c([nH]c2c1)CNCC3`, the growth inhibition was -6.72%.

`c1ccc(/N=N/c2ccccc2)cc1`: the growth inhibition stood at 7.04%.

As for `CC(=O)O[C@@H]1CC[C@@]2(C)[C@@H](CC[C@@H]3[C@@H]2CC[C@]2(C)C(=O)CC[C@@H]32)C1`, the growth inhibition was -23.4%.

For the compound `CC[S+]([O-])CCSP(=O)(OC)OC` (stereo unspecified), the growth inhibition is -5.31%.

As for `CCOP(=S)(OCC)Oc1nc(Cl)c(Cl)cc1Cl`, the growth inhibition is -6.37%.

For `O=P1(N(CCCl)CCCl)NCCCO1` (stereo unspecified), the growth inhibition is -6.55%.

Regarding `c1ccc2c(c1)sc1ccccc12`, the growth inhibition was -5.92%.

Consider `C=C1C2CC[C@@]3(C)[C@H](c4ccoc4)OC(=O)C[C@]13O[C@H]1CC(=O)C(C)(C)[C@H](C(OC(C)=O)C(=O)OC)[C@@]21C` (stereo partly specified), for which the growth inhibition was -8.54%.

Take `CN1C(=O)CCS(=O)(=O)C1c1ccc(Cl)cc1` (stereo unspecified): the growth inhibition is -6.39%.

`CC(C)[C@]12O[C@H]1[C@@H]1O[C@@]13[C@@]1(C)CCC4=C(COC4=O)[C@@H]1C[C@@H]1O[C@@]13C2=O`: the growth inhibition is -20.4%.

In the case of `CC(N)C(O)c1ccc(O)c(O)c1` (stereo unspecified), the growth inhibition stood at 4.73%.

Consider `CC(=O)NC1CCSC1=O` (stereo unspecified), for which the growth inhibition was -3.47%.

For the compound `CNC(=O)Oc1ccccc1OC(C)C`, the growth inhibition is -2.26%.

As for `COc1cc([C@@H]2c3cc4c(cc3[C@H](OC(C)=O)[C@H]3COC(=O)[C@@H]23)OCO4)cc(OC)c1OC`, the growth inhibition was -7.36%.

With `O=C(O)Cc1cnc[nH]1`, the growth inhibition is -6.28%.
